# Plain letter strings leave the end groups untold.
# Test: general procedure: Fmoc solid-phase peptide synthesis; Fmoc-Linker AM-PS resin, 1% cross-linked (Biosearch Technologies); PEG-PS resin with modified Rink linker; HBTU/DIEA
# Conditions: whole synthesis
Substance,crude yield,isolated yield,crude yield (hydrocarbon staple),isolated yield (hydrocarbon staple)
PVLDEFREKLNEELEALKQKLK,80%,20. %,,
PVLDEFREKLNER5HLEAR5HKQKLK,,,60%,23%
PVLDES7HREKLNES7HLEALKQKLK,73%,22%,,
